In PMC7880690, “Chemical genetics and proteome-wide site mapping reveal cysteine MARylation by PARP-7 on immune-relevant protein targets” (eLife, 2021):
These are yes or no findings as the source states them, for the method shown. Binding seen in cells or lysates may run through a third protein. A yes stands for co-enrichment or nearness to the bait. Other partners may have been found. Sequences can lack the tags named with a protein.

Molecular target: T1, Myc-BirA*-WT-PARP-7 (UniProt Q7Z3E1)
T1 sequence: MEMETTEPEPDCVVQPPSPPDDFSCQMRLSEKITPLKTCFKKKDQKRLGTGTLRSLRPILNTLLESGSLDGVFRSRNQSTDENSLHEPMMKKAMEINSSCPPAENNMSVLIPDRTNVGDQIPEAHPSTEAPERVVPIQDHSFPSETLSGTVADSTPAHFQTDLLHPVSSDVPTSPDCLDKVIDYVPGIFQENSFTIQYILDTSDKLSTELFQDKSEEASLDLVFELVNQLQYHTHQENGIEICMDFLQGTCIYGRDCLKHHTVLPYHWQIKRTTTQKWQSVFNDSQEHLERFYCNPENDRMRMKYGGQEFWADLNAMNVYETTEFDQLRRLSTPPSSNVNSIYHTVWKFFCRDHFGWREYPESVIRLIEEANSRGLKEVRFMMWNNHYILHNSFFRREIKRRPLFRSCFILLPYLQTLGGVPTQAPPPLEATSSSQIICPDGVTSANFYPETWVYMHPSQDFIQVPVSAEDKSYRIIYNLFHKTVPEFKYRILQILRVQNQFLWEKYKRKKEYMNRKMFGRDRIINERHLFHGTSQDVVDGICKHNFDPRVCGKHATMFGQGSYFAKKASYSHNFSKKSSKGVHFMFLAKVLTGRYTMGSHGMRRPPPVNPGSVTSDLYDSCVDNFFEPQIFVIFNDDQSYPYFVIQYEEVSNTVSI
Experiment: proximity labelling; BioID in HEK 293T cells transfected with Myc-BirA*-PARP-7; biotin 50 μM; biotinylated proteins enriched on Neutravidin agarose; Western blot with an antibody against PARP-13

Substance: PARP-13.1 (endogenous) (from UniProt Q7Z2W4-1 1-902)
- binding: binds
